Publication PMC5421902
Results are given in words; binding and its absence hold for the method and conditions named. In cells and extracts the contact can be indirect. Some binding calls cover weakened binding; strength is not graded here. Sequences can lack the tags named with a protein.

Protein sequences, listed by entry. Tags and fused reporters are not part of them. Residues count along the entry.
UniProt Q15109, residues 23-404: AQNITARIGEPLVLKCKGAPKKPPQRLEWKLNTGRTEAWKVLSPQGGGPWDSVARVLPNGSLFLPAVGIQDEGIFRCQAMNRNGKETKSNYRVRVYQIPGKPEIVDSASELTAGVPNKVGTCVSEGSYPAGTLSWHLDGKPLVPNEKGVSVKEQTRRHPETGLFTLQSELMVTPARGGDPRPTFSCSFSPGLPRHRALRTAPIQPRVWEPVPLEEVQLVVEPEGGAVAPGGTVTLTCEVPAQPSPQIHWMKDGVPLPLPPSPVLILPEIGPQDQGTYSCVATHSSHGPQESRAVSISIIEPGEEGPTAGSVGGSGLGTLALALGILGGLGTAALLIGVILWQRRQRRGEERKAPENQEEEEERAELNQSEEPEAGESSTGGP

Molecular target: Flag-RAGE (UniProt Q15109)
Assay: co-IP; Flag-RAGE and myc-S100A7 co-expressed in HEK293 (methods: 293T) cells for 48 h; lysates incubated with ANTI-FLAG M2 Affinity Gel at 4°C overnight, gel washed with PBS twice; Western blot with tag antibodies; pcDNA3-Flag empty vector as control

binding: binds
B1: myc-S100A7 (protein, UniProt P31151 1-101)
chain: MSNTQAERSIIGMIDMFHKYTRRDDKIEKPSLLTMMKENFPNFLSACDKKGTNYLADVFEKKDKNEDKKIDFSEFLSLLGDIATDYHKQSHGAAPCSGGSQ
